From US20240279618A1, “RECEPTOR TYROSINE KINASE AGONIST, COMPOSITION FOR CELL CULTURE MEDIUM, AND […] MAINTENANCE COMPOSITION” (SEKISUI CHEMICAL CO., LTD., priority 2021, published 2024)
Results are given in words; binding and its absence hold for the method and conditions named. Some binding calls cover weakened binding; strength is not graded here. For part of these data: Tags and fused reporters may be left off the sequences shown.

Protein sequences, listed by entry. Tags and fused reporters are not part of them. Residues count along the entry.
FGFR1-DIIDIII (FGFR1 extracellular domain, DII and DIII domains) (P11362, residues 142-365): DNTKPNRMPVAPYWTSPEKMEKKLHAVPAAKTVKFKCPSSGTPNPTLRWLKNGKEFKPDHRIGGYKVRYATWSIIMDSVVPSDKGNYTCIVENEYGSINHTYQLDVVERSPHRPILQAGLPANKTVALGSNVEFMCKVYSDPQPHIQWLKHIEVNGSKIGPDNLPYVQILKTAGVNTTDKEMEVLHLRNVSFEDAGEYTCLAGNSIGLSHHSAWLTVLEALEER
FGFR1-DIII (FGFR1 extracellular domain, DIII domain) (P11362, residues 251-365): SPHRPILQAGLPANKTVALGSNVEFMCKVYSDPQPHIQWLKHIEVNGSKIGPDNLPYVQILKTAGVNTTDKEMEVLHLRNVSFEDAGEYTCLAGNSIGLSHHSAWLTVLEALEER

How the values were obtained:
[1] = molecular target: FGFR1-DIII (FGFR1 extracellular domain, DIII domain) (human) (UniProt P11362); test: BLI (Octet 384); VHH Clone #1 immobilised on an Anti-Penta-HIS sensor, FGFR1-DIII in solution, 120 s association and 120 s dissociation [B]
[2] = molecular target: FGFR1-DIIDIII (FGFR1 extracellular domain, DII and DIII domains) (human) (UniProt P11362); test: BLI (Octet 384); VHH Clone #1 immobilised on an Anti-Penta-HIS sensor, FGFR1-DIIDIII in solution, 120 s association and 120 s dissociation [C]
FGFR4-Fc = molecular target: T1, FGFR4-Fc (human, UniProt P22455 22-369, limits assumed); test: SPR (Biacore T200, CAP single-cycle kinetics), as in Example 5; FGFR4-Fc on the chip, VHH Clone #1 injected in rising concentrations
T1 construct: not shown: Fc part
T1 sequence (looked up): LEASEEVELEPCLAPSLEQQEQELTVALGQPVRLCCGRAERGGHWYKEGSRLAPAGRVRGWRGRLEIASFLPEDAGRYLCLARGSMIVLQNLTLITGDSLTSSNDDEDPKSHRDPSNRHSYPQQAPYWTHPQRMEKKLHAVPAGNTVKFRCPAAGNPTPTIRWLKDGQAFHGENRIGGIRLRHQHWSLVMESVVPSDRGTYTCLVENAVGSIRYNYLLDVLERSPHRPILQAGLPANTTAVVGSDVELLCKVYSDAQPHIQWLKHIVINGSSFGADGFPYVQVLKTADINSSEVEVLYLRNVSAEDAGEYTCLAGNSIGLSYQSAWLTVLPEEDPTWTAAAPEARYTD

Measured: binding

B1: VHH Clone #1 (VHH monomer Clone #1) (VHH)
VHH: QLQLVESGGGSVQAGGSLRLSCAASRSLSRFNVWTWYRQAPVKQRELVASITKSGDTNYAESVKGRFIISRDDDKNTVYLQMNNLKSEDTGIYYCAGSYYSGSYLYPSPGGFSVWGQGTQVTVSS
notes: also called VHH #1; FGFR #1; not shown: C-terminal His tag (purified on Ni Sepharose, captured on Anti-Penta-HIS sensor)
binds: all assays above
